# Experimental data published in PMC6925144, “A prospective compound screening contest identified broader inhibitors for Sirtuin 1” (Scientific Reports, 2019).
# Protein sequences, listed by entry. Tags and fused reporters are not part of them. Residues count along the entry.
# UniProt Q96EB6, 2-747 limits assumed: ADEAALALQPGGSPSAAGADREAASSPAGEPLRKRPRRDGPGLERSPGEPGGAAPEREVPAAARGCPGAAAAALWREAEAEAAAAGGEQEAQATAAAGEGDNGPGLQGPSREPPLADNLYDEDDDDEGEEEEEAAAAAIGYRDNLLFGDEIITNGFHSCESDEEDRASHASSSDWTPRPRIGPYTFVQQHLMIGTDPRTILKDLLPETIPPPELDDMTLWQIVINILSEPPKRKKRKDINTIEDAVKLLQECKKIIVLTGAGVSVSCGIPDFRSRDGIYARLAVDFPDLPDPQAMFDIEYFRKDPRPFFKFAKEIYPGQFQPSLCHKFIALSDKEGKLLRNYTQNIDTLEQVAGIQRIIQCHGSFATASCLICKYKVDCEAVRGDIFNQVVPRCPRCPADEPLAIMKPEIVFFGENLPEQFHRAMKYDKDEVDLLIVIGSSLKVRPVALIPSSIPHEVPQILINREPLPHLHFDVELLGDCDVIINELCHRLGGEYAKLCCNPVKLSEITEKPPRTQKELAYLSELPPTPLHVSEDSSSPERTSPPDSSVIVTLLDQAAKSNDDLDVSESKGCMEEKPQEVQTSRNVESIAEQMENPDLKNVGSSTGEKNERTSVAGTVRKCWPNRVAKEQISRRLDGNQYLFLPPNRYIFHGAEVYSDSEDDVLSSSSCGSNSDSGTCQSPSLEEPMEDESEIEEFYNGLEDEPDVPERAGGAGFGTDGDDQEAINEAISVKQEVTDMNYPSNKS
# In all, about 3,200 compounds were measured (“TSA(without NAD+) / Primary screening (TSA) / delta Tm (K)”: median about -0.07, highest 2% from about 0.37 on). This is one part of the list.
# Target: NAD-dependent deacetylase Sirtuin 1 (human, UniProt Q96EB6)
# Assay: primary screen, delta tm
# Set-up: single well (n = 1)
# Settings: 10 µM
# Procedure, shortened: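 Thermal shift of Sirtuin 1 measured without NAD+, compound at 10 µM (n = 1); value is ΔTm, with hits defined as ΔTm > 0.45 K or < −1.5 K. Hits retested at 5, 10, 20 µM (n = 4) and counterscreened on bovine carbonic anhydrase and ABL1 SH2 domain.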
row,Structure (SMILES),TSA(without NAD+) / Primary screening (TSA) / delta Tm (K)
1,Nc1nc(COC(=O)C2CCN(C(=O)NCc3ccco3)CC2)nc2ccccc12,-0.13 K
2,COc1ccc2nc(SCC(N)=O)[nH]c2c1,-0.27 K
3,CCCc1nc(CSc2nccn2Cc2ccccn2)cs1,0.06 K
4,Cc1c(C(=O)O)sc2nc(SCC(=O)N3CCCC3)[nH]c(=O)c12,0.17 K
5,CCOCCN,-0.02 K
6,Cc1ccc(CNc2ncnc3ccsc23)cc1,-0.23 K
7,CC(=O)N1N=C(c2ccc(O)cc2)CC1c1ccco1 (stereo not shown),-0.01 K
8,Cc1ccc(C23CC4CC(CC(C(=O)OCC(N)=O)(C4)C2)C3)cc1C,-0.22 K
9,COC(=O)Cn1c(=O)c(C(=O)COC(=O)C2CC(O)CN2S(=O)(=O)c2ccc3ccccc3c2)c(N)n(Cc2ccccc2)c1=O (stereo not shown),-0.02 K
10,CN(c1ccccc1C(N)=O)S(=O)(=O)c1ccc2c3c(cccc13)C(=O)N2,-0.18 K
11,COc1ccc(C(=O)C2=C(O)C(=O)N(CCCN3CCOCC3)C2c2ccc(C)cc2)cc1OC (stereo not shown),-0.13 K
12,c1ccc2c3c(ccc2c1)C(Nc1ccc2nnnn2n1)CCCO3 (stereo not shown),0.22 K
13,CCn1c(SCC(=O)NCc2cccs2)nc2ccsc2c1=O,-0.01 K
14,CC(OC(=O)Cc1coc2cc(O)ccc12)C(=O)c1c[nH]c2ccccc12 (stereo not shown),-0.04 K
15,CC1CCCN(CCCNC(=O)CCc2cc3ccccc3[nH]c2=O)C1 (stereo not shown),-0.13 K
16,CCn1c(SC(C)C(=O)Nc2sc3c(c2C(N)=O)CCC3)nnc1N1CCOCC1 (stereo not shown),-0.04 K
17,Cc1nnc(N2CCN(C(=O)NC3CC3)CC2)c(C(N)=O)c1C,0.05 K
18,O=C1/C(=C/c2cccc(F)c2)Oc2cc(O)ccc21,0.09 K
19,O=C(CSc1nnc(NC2CC2)s1)N(Cc1ccccc1)c1nc2c(s1)CCCC2,-0.11 K
20,NC(=O)NC(=O)CCN1CCN(CC(=O)Nc2ccccc2)CC1,-0.14 K
21,CCN(CC)S(=O)(=O)c1ccc(OC(C)C)c(NC(=O)CC23CC4CC(CC(O)(C4)C2)C3)c1,-0.04 K
22,COc1ccc(N(C)S(=O)(=O)c2cccc(C(=O)Nc3ccc(C)cc3)c2)cc1,0.17 K
23,CN(C)S(=O)(=O)c1ccc(C(=O)C2=C(O)C(=O)N(CCN3CCOCC3)C2c2ccccc2)cc1 (stereo not shown),-0.03 K
24,CCN(CC(=O)Nc1ccc(OC)cc1)CC(=O)Nc1ccc(C(N)=O)cc1,-0.31 K

row,Structure (SMILES),TSA(without NAD+) / Primary screening (TSA) / delta Tm (K)
1,O=C(CN1CCN(C(=O)c2ccc(-c3ccc(F)cc3)o2)CC1)Nc1cccc(F)c1,0.22 K
2,O=S(=O)([O-])CCS,-0.13 K
3,O=c1c2ccccc2n2c(SCC3CCCCO3)nnc2n1Cc1ccccc1 (stereo not shown),-0.21 K
4,O=C1NC(=O)C(=Cc2cn(-c3ccccc3)nc2-c2cc3c(ccc4ccccc43)oc2=O)C(=O)N1,-0.03 K
5,CCc1nsc(N2CCC(Oc3ccnc(C(N)=O)c3)CC2)n1,-0.15 K
6,CNc1ncnc2ccsc12,-0.01 K
7,COCc1nc(NCC(c2ccc(OC)cc2)N2CCOCC2)c2c(-c3ccccc3)csc2n1 (stereo not shown),-0.08 K
8,O=C(CN1CCOCC1)N1CCN(Cc2ccc3c(c2)OCO3)CC1,-0.02 K
9,CN1CCCN(c2ccc(NC(=O)NCCCNC(=O)c3cccc(O)c3)cc2F)CC1,0.02 K
10,Cc1cc(C)nc(-n2nc(C)cc2NC(=O)CCc2ccc(S(=O)(=O)N3CCOCC3)cc2)n1,-0.18 K
11,COc1cccc(C#CCO)c1,-0.22 K
12,O=S(=O)([O-])CCl,-0.23 K
13,Cc1ccccc1CNC(=O)CSc1nc2ccsc2c(=O)n1C,-0.17 K
14,C[C@@H]1O[C@@H]1P(=O)([O-])[O-],-0.07 K
15,O=C(NCc1nnc2n1CCCCC2)c1ccc(-c2ccccc2)cc1,-0.03 K
16,CN(CC(=O)Nc1cccc2ccccc12)C(=O)C1=COCCO1,-0.23 K
17,C=CCNc1nnc(SCC(=O)N(Cc2ccccc2)c2nc3c(s2)CCCC3)s1,0.13 K
18,O=C(CCc1c[nH]c2ccccc12)Nc1nnc(-c2ccccc2)o1,0.52 K
19,O=C(Nc1ccc(F)cc1F)c1ccc(/C=N/c2ccc(F)cc2F)cc1,-0.14 K
20,Oc1ccccc1O,0.06 K
21,Cc1ccccc1C1CC1C(=O)N1C2C=C(c3ccccc3)CC1CC2 (stereo not shown),-0.24 K
22,COC(=O)Cn1c(CN2CCC(C(N)=O)CC2)nc2c1c(=O)n(C)c(=O)n2C,0.05 K
23,COC(=O)c1ccc2[nH]c(=O)[nH]c2c1OC,-0.07 K
24,CC(CSc1nc2ccccc2o1)Cn1c(N2CCC(C(N)=O)CC2)nc2c1c(=O)[nH]c(=O)n2C (stereo not shown),-0.14 K

row,Structure (SMILES),TSA(without NAD+) / Primary screening (TSA) / delta Tm (K)
1,CCCOc1ccc(C2C(C(=O)c3ccco3)=C(O)C(=O)N2CCCN2CCOCC2)cc1 (stereo not shown),-0.12 K
2,O=C1/C(=C/c2ccccc2Br)Oc2cc(O)ccc21,0.03 K
3,O=C1CC(Cc2ccc(NC(=O)c3cc4ccccc4[nH]3)cc2)C(=O)N1 (stereo not shown),-0.02 K
4,CC(N)CCc1ccc(O)cc1 (stereo not shown),-0.03 K
5,CN(C)C(=O)c1ccc2[nH]c3c(c2c1)CCCC3,-0.18 K
6,COCC(C)(N)CN (stereo not shown),-0.07 K
7,COc1ccc(-n2c(C)c(C)c3c(N)ncnc32)cc1,-0.28 K
8,CCC(NC(=O)c1ccc(C(N)=O)cc1)C(c1ccc(C)cc1)n1cncn1 (stereo not shown),-0.21 K
9,CCc1ccc(C(=O)Nc2ccccc2C(=O)OC)cc1,-0.17 K
10,O=C(CN1CCN(C(=O)c2ccc(-c3ccccc3Cl)o2)CC1)Nc1cccc(F)c1,0.06 K
11,Cc1ccc(-c2nc(CC(=O)Nc3cccc(Cn4[nH]c(=O)ccc4=O)c3)cs2)o1,-0.03 K
12,CCn1c(C)cc(C(=O)OC(C)C(=O)Nc2ccc(C(N)=O)cc2)c1C (stereo not shown),-0.07 K
13,Cc1ccc(C(C)C)c(OCC(=O)Nc2cc(C(N)=O)ccc2N2CCCC2)c1,-0.03 K
14,CCc1ccc(CNC(=O)CCCc2nc(-c3ccc(F)cc3)no2)cc1,-0.15 K
15,COc1cc(CN(C)C(=O)c2ccc(C)c(NC(=O)c3ccco3)c2)ccc1OCc1ccccc1,0.18 K
16,CN(c1ccc(F)c(F)c1)S(=O)(=O)c1ccc2nc[nH]c(=O)c2c1,0.19 K
17,c1ccc(-c2noc(CN3CCN(c4nc(-c5ccsc5)nc5ccccc45)CC3)n2)cc1,0.18 K
18,COC(=O)c1c(C)[nH]c(C(=O)NCCc2ccc(-n3cccn3)cc2)c1C,0.17 K
19,CCn1nc(C(=O)N(C)Cc2ccc(OCc3ccccc3)c(OC)c2)c2ccccc2c1=O,-0.05 K
20,COC(=O)c1ccccc1NC(=O)Cc1c[nH]c2ccccc12,-0.22 K
21,Cn1ccnc1-c1sc(NC(=O)c2ccccc2Br)nc1-c1ccccc1,0.02 K
22,COc1ccc(OC)c(C2CCCN2C(=O)c2ccc(NC(=O)c3ccco3)s2)c1 (stereo not shown),-0.02 K
23,NC(=S)c1cccc(NC(=O)CN2CCOCC2)c1,-0.31 K
24,NC(=O)c1ccc(COC(=O)c2ccc(S(=O)(=O)NC3CC3)cc2)cc1,-0.08 K

# Quoted at random: six records from the list, in no set order.
row,Structure (SMILES),TSA(without NAD+) / Primary screening (TSA) / delta Tm (K)
12,CCn1c(C)cc(C(=O)OC(C)C(=O)Nc2ccc(C(N)=O)cc2)c1C (stereo not shown),-0.07 K
15,COc1cc(CN(C)C(=O)c2ccc(C)c(NC(=O)c3ccco3)c2)ccc1OCc1ccccc1,0.18 K
17,c1ccc(-c2noc(CN3CCN(c4nc(-c5ccsc5)nc5ccccc45)CC3)n2)cc1,0.18 K
2,O=C1/C(=C/c2ccccc2Br)Oc2cc(O)ccc21,0.03 K
4,CC(N)CCc1ccc(O)cc1 (stereo not shown),-0.03 K
24,NC(=O)c1ccc(COC(=O)c2ccc(S(=O)(=O)NC3CC3)cc2)cc1,-0.08 K

# More compounds.

row,Structure (SMILES),TSA(without NAD+) / Primary screening (TSA) / delta Tm (K)
1,COc1ccc(NC(=O)CC23CC4CC(C2)CC(CC(=O)Nc2ccc(OC)cc2)(C4)C3)cc1,0.15 K
2,CC(C)CC(=O)Nc1ccc(C(=O)COC(=O)CNC(=O)CC23CC4CC(CC(C4)C2)C3)cc1,-0.04 K
3,C=CCOc1ccc(C2C(C(=O)c3ccco3)=C(O)C(=O)N2CCCN2CCOCC2)cc1 (stereo not shown),-0.33 K
4,CCNC(=O)NCc1ccc(NC(=O)c2ccc([N+](=O)[O-])cc2)cc1,-0.27 K
5,CC(OC(=O)c1ccc(CS(C)(=O)=O)cc1)C(=O)NCc1ccco1 (stereo not shown),0.22 K
6,O=C(Nc1nnc[nH]1)C1CC(=O)N(c2ccc3c(c2)CCC3)C1 (stereo not shown),-0.01 K
7,CN(CCC#N)C(=O)C(C)(C)c1ccccc1,-0.12 K
8,Cc1ccc(OCCCCn2cncn2)c(C)c1,0.08 K
9,NCCC1(O)CNC1,-0.33 K
10,Cc1cc(C2=NN=C(NCc3ccco3)SC2)c(C)n1Cc1ccc2c(c1)OCO2,-0.14 K
11,O=c1cc(NCCCc2ccccc2)nc2ccccn12,0.02 K
12,CCOC(=O)c1c(NC(=O)COC(=O)c2ccc(C)c(O)c2)sc(C(=O)N(CC)CC)c1C,-0.23 K
13,C[C@@H](N)C(N)=O,-0.07 K
14,Cc1nn(-c2ccccc2)cc1C=C1C(=O)NC(=S)NC1=O,0.05 K
15,NC(=O)c1ccccc1NC(=O)CCN1CCN(c2ncccn2)CC1,-0.02 K
16,CN(CCCc1cc(-c2ccccc2)n(C)n1)C(=O)CCc1c[nH]c2ccccc12,-0.24 K
17,O=C(O)c1cccc2ccccc12,-0.12 K
18,O=C(Nc1cccc(Cn2[nH]c(=O)ccc2=O)c1)c1cccc(Oc2ccccc2)c1,-0.13 K
19,Cc1cc(C)cc(N(Cc2ccc(C(N)=O)cc2)Cc2ccc(C(N)=O)cc2)c1,-0.04 K
20,O=C(Cn1[nH]c(=O)c2ccccc2c1=O)Nc1cccc(S(=O)(=O)NCc2ccco2)c1,0.12 K
21,CN1CCC(Sc2ccc3ccccc3c2)C1=O (stereo not shown),-0.03 K
22,CN(c1ccc(C(N)=O)cc1)S(=O)(=O)c1ccc2c(c1)CCC2,-0.24 K
